Some of the results follow.
B1: il10ra_site1_normal_mot_HHH_b2_07521_000000141_0001_20_37_H_._HHH_b2_03446_0001_0000200028_0000001_0 (protein)
chain: SSSSDEEERYLELSLKFAEALLRDGDPEAARLLLKAAKDIAEKSGDEELLEEIERLLEEIGSSSS
B2: il10ra_site1_normal_mot_HHH_b2_00984_000000042_0001_1_20_H_._HHH_b1_03879_af2_0001_0000300007_0000001_0 (protein)
chain: SSSSDEEEIKRLEEELEEAVERQDVELVAEIAKRVLRLAFELRDPELLRAVWELIREFANSSSSS
B3: il10ra_site1_normal_mot_HHH_b1_06363_000000103_0001_21_38_H_._HHH_b1_06214_af2_0001_0000400025_0000002_0_af2pred_0001 (protein)
chain: SSSSSDEEEEEVEELLEKAKKIENPEEVYKLLVRAFSIAFHINNDELRELVEEVLQEFAQSSSSS
B4: il10ra_site1_sap_19_mot_HHH_b2_04186_af2_000000278_0001_1_19_H_._HHH_b1_07627_af2_0001_0000400015_0000002_0_0001 (protein)
chain: SSSSDKEERELIEAAIRLAEQLYEWGDDESARFHLWSAKQLAEELGDEELREEIEELEREISSSS
B5: il10ra_site1_sap_19_mot_HHH_b1_06789_af2_000000041_0001_1_20_H_._HHH_b2_05039_0001_0000300017_0000001_0_0001_af2pred_0001 (protein)
chain: SSSSDEAERRLFELFREASRLLREGNPEEAKKVTEELEELAEQLGDERAKRLVELLKRLNSSSSS
B6: il10ra_site1_sap_26_mot_0750aae41c39e4229e2ea8fa354cc919_0001_1_000000144_0001_37_51_H_._HHH_b1_04100_af2_0001_0000100003_0000001_0_0001 (protein)
chain: SSSSSDEEVRELVEFLEKWYRQDPDPKAKEFIEISLELLARDYNDPEVEEILEELREESSSSSSS
B7: il10ra_site1_normal_mot_HHH_b1_04065_000000255_0001_41_56_H_._HHH_b1_08168_0001_0000500034_0000001_0_af2pred_0001 (protein)
chain: SSSSSEEEELEELLRELEELAKEGDEEKFAQLFVEVSKLAWEARDEEVSKRLIELAVEFFSSSSS
B8: il10ra_site1_normal_mot_HHH_b2_06602_000000226_0001_1_16_H_._HHH_b1_03209_af2_0001_0000100006_0000002_0 (protein)
chain: SSSSSEEEEAFELLVQAYTLANQGDPEEAREVLEEALEVAERGNNRALVLAIEINLERLESSSSS
B9: il10ra_site1_sap_23_mot_HHH_b1_03333_000000091_0001_1_17_H_._HHH_b1_01665_af2_0001_0000100003_0000002_0_0001 (protein)
chain: SSSSSSEEEAERLVEEVREELERLDAEERWKLYREAAELLVELGNREAIEALIEAFIRASSSSSS
B10: il10ra_site1_normal_mot_HHH_b1_06912_af2_000000235_0001_1_15_H_._HHH_b1_07203_af2_0001_0000200016_0000002_0 (protein)
chain: SSSSSDEADRLYKLLREALELLANGNPEEAEEILEEVIKLAEELNNFVFVFAARHLERDISSSSS
B11: il10ra_site1_normal_mot_HHH_b1_04693_000000238_0001_19_36_H_._HHH_b1_00041_0001_0000200024_0000001_0 (protein)
chain: SSSQEAYEVVEKAIEEAIELLRNGNPEEAEKVVEEAIRIVEELGNDIARFQLETLLRLIQRSSSS
B12: il10ra_site1_sap_11_mot_5fda0655e6834f3f331eaa9f580e88ed_0001_af2_000000239_0001_36_50_H_._05650c620ad560ee7d778618fc3b96ad_0001_0001_0000700017_0000002_0_0001 (protein)
chain: DDIFRLQARLAARDPKVLRAISERAEEAKREGDEQHFKMFLRLLRLVVELYGDPLAEELLEELEK
B13: il10ra_site1_normal_mot_HHH_b1_00137_000000000_0001_1_19_H_._HHH_b2_06740_0001_0000300009_0000002_0_af2pred_dldesign_0_af2pred (protein)
chain: SSSDIQARLDFAGEVVVRLYDELGLTREQLEVLRDEALALVQAGLSDEEIRERLEALARRLASSS
B14: il10ra_site1_normal_mot_HHH_b1_06789_af2_000000041_0001_1_20_H_._HHH_b2_05724_af2_0001_0000400011_0000001_0_af2pred_0001 (protein)
chain: SSSSSSRKEFLKAAKRTAEILIKNGDPEEARRALEIAHLLAELLGDPILEEIEELLEELNSSSSS
B15: il10ra_site1_normal_mot_HHH_b2_00984_000000042_0001_1_20_H_._HHH_b2_04018_0001_0000100003_0000001_0 (protein)
chain: SSSSDEVEERVERLLEEAEELAERGDPEEANELLQEATQVALENNNAELLQLVWEVIKRLSSSSS
B16: il10ra_site1_sap_22_mot_HHH_b1_05357_000000034_0001_23_39_H_._HHH_b2_07159_0001_0000100004_0000001_0_0001_af2pred_0001 (protein)
chain: SSSSDERVKLTLRMAERLARHGARESVEFLLKAAEQIARRLGDEELEELIEEVEERVRELLSSSS
B17: il10ra_site1_sap_15_mot_HHH_b2_02303_af2_000000113_0001_43_56_H_._HHH_b1_07128_af2_0001_0000500025_0000001_0_0001_af2pred_0001 (protein)
chain: SSSSSDELERVRRLLRRVAQLLHEGNPEEAEELVREALEIAEELGNLALAFAARYLLKLISSSSS
B18: il10ra_site1_sap_23_mot_HHH_b1_08616_000000009_0001_1_19_H_._HHH_b2_04715_af2_0001_0000100004_0000001_0_0001_af2pred_0001 (protein)
chain: SSSSSSQEEQRIRALLFFAKFANNPEARRLALELAERLARELGNEELREEVERVEKELEESSSSS
B19: il10ra_site1_normal_mot_HHH_b2_08144_af2_000000046_0001_38_52_H_._HHH_b2_05514_af2_0001_0000300004_0000001_0_af2pred_0001 (protein)
chain: SSSSSSSDEARRIIELLREALQIEDPEEARELVEEAEELAEEINNRLLLLIARFLLKQLSSSSSS
B20: il10ra_site1_sap_33_mot_HHH_b1_06174_af2_000000107_0001_40_57_H_._HHH_b1_05284_0001_0000300018_0000001_0_0001 (protein)
chain: SSSSTLAQEVYELLRRAAELLDEGDKEEAEKLLEEARRLAEEAGSMLLRVQVEFLERQIENSSSS
B21: il10ra_site1_normal_mot_HHH_b2_08144_af2_000000046_0001_38_52_H_._HHH_b1_03926_af2_0001_0000100003_0000001_1_af2pred_0001 (protein)
chain: SSSSSDRERIAELLRRAAEAFADGNPEEAEELVEEALELAQERNNELLAFIAEFLLRIVRSSSSS
B22: il10ra_site1_normal_mot_HHH_b2_05548_000000224_0001_41_54_H_._HHH_b2_03931_0001_0000100013_0000001_0 (protein)
chain: SSSSSDEEELERLTKELEEALKEGDERLVAKLTTKLFDLVARTRDEEAQEVVRRAVEFLNSSSSS
B23: il10ra_site1_sap_15_mot_HHH_b2_03330_000000161_0001_1_19_H_._HHH_b1_05293_0001_0000400012_0000001_0_0001 (protein)
chain: SSSDEAYRLVEKAIKEVIELWEKGNPEEAQRLLEEVEERLEELNNIVALWAIRHLLELLRRSSSS
B24: il10ra_site1_sap_22_mot_HHH_b1_08477_000000091_0001_40_57_H_._3c52c70cb82747e000e16ffcb2ba7c63_0001_0001_0000100004_0000002_0_0001 (protein)
chain: SSSSSDVAEIAQRALRAAYQKGDEEGLQEIWRIIEAAARGEISEEEASERLEEILERLESSSSSS
B25: il10ra_site1_sap_30_mot_HHH_b1_06828_af2_000000004_0001_41_57_H_._HHH_b1_01454_0001_0000400012_0000001_0_0001 (protein)
chain: SSSSDEERVRELIEEAEELAERGNPREAARVIQEAVRIAYQAKNPELLRALWRVVKELANSSSSS
B26: il10ra_site1_sap_21_mot_HHH_b2_00230_000000227_0001_1_19_H_._HHH_b2_04280_0001_0000100004_0000002_0_0001 (protein)
chain: SSSSDKEARELIEALLRIAKQAYENGDEEAAEFLLWAAKHLAEELGDEELQREIEELEEEISSSS
B27: il10ra_site1_normal_mot_e933875d0a4b1ebfe8e667f01481c16a_0001_1_af2_000000222_0001_49_63_H_._HHH_b2_03305_0001_0000100003_0000002_0_af2pred_0001 (protein)
chain: SSSSSDVTERLIRLSRRALELLNEGNPEEAEKLLEEAFELAEENNDLNTLAVIEFLLERVSSSSS
B28: il10ra_site1_sap_18_mot_ems_3hC_416_0001_000000048_0001_1_19_H_._HHH_b2_08039_af2_0001_0000200020_0000001_0_0001 (protein)
chain: SSSSDESYEIARRVIEELIELFREGDPEEAERLVEEAEKELKELGDRIALLVLKWLFREEKSSSS
B29: il10ra_site1_sap_25_mot_HHH_b1_04015_af2_000000074_0001_1_17_H_._HHH_b2_05022_af2_0001_0000200016_0000002_0_0001_af2pred_0001 (protein)
chain: SSSSNEEAEISTRFELRLARIAAELGDPELARFALRSAESLLRREGDEELLKEVEELLEEISSSS
B30: il10ra_site1_sap_15_mot_HHH_b1_00456_000000263_0001_1_17_H_._HHH_b1_05058_af2_0001_0000100002_0000001_0_0001 (protein)
chain: SSSSSEANREIYELLREAVELDHEGDPEEAEEVLREAQEIAEENNNRVLLALIEWLLKRIGSSSS
B31: il10ra_site1_normal_mot_e1dd4851c59bc1cdde016f988f6856bd_0001_1_000000200_0001_16_31_H_._HEEHE_2724_af2_0001_0000200008_0000001_0_af2pred_0001 (protein)
chain: SDEERFRLAVENAAELAGVEDVEVERENGEFEVTIHADSPAARELERMVRFIALILNVEVEVEIR
B32: il10ra_site1_normal_mot_HHH_b2_03220_af2_000000223_0001_23_40_H_._HHH_b1_08461_0001_0000200033_0000001_0 (protein)
chain: SSSSTEENERIWELLRRVLELAANGNPEEAQEVLEEARELVEEANNRLLRFNVRILEEHLRSSSS
B33: il10ra_site1_normal_mot_HHH_b1_08172_af2_000000028_0001_1_19_H_._HHH_b1_08627_af2_0001_0000200012_0000002_0 (protein)
chain: SSSSSDEVYEEIKELIEKANELARRGDKEEARKVLEEARELAEEAGSEVLRWTIEYLERRISSSS
B34: il10ra_site1_sap_27_mot_HHH_b2_02736_000000092_0001_22_38_H_._HHH_b1_04545_af2_0001_0000600044_0000001_0_0001 (protein)
chain: SSSSSEEEQELLELIHEVIELMLRGDEEELRELLERALELAEKLNDERAALNLRSLLEILSSSSS
B35: il10ra_site1_normal_mot_HHH_b1_05357_000000034_0001_23_39_H_._HHH_b1_01999_0001_0000200009_0000001_1_af2pred_0001 (protein)
chain: SSSSDEEELEELEEEVKELVRRGDPHEAAYLVLRAFAIALKLNDPELKRRVRELAELVLDSSSSS
B36: il10ra_site1_normal_mot_HHH_b2_00273_000000062_0001_23_39_H_._HHH_b1_02145_af2_0001_0000400021_0000001_0 (protein)
chain: SSSDREEFLRLAQKALQLAFRLRDEETLQLLWELIKRYAEHNDPELLEELERLVEELEELATSSS
B37: il10ra_site1_normal_mot_HHH_b1_03353_af2_000000170_0001_1_18_H_._HHH_b1_01603_0001_0000200017_0000001_0 (protein)
chain: SSSSDEEEEFEELFERIEELIRQGDPHEAYELLRELAELAAEIGDPELQRLVLELARRLSSSSSS

These binders were tested against il10ra, Q13651 (assay: yeast display titration).

Apparent Kd, inactive:
B1 no binding seen, B2 no binding seen, B3 no binding seen, B4 no binding seen, B5 no binding seen, B6 no binding seen, B7 no binding seen, B8 no binding seen, B9 no binding seen, B10 no binding seen, B11 no binding seen, B12 no binding seen, B13 no binding seen, B14 no binding seen, B15 no binding seen, B16 no binding seen, B17 no binding seen, B18 no binding seen, B19 no binding seen, B20 no binding seen, B21 no binding seen, B22 no binding seen, B23 no binding seen, B24 no binding seen, B25 no binding seen, B26 no binding seen, B27 no binding seen, B28 no binding seen, B29 no binding seen, B30 no binding seen, B31 no binding seen, B32 no binding seen, B33 no binding seen, B34 no binding seen, B35 no binding seen, B36 no binding seen, B37 no binding seen
